Among the data in paper PMC12582567, “Short heat shock factor A2 regulates heat resistance and growth balance in Arabidopsis” are binding values, retold here.

Sequences of proteins named here, by UniProt entry; tags and fusion partners are left off.
UniProt Q9SCW5: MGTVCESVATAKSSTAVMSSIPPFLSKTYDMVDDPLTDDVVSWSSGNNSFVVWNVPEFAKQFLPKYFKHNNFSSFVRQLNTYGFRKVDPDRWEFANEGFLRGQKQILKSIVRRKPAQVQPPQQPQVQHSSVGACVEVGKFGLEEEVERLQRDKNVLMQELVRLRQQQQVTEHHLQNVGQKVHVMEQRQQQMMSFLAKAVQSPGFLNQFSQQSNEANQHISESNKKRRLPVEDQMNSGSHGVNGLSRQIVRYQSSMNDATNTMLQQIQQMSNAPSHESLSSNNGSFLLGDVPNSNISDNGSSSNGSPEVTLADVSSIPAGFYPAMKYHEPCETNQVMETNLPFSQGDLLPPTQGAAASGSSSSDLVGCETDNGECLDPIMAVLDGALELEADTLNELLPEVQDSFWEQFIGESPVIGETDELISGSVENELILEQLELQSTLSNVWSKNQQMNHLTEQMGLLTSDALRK
UniProt Q9SV12: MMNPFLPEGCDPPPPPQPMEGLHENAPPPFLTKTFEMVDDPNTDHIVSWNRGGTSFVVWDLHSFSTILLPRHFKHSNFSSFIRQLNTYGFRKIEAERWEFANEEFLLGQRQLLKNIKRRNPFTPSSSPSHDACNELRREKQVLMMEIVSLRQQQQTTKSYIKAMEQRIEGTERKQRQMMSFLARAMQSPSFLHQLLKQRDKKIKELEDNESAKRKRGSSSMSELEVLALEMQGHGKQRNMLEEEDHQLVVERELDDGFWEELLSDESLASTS
UniProt Q9T0D3: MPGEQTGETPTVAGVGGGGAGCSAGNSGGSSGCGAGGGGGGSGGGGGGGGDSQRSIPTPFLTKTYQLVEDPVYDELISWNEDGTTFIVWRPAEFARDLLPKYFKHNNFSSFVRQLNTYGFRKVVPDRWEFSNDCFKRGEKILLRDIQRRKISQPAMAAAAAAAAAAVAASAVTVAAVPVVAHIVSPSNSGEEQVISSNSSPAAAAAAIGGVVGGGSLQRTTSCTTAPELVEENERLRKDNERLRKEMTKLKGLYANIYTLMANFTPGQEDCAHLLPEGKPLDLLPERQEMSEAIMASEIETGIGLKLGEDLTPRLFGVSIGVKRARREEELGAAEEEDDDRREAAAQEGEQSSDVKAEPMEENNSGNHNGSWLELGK
UniProt Q8GYY1: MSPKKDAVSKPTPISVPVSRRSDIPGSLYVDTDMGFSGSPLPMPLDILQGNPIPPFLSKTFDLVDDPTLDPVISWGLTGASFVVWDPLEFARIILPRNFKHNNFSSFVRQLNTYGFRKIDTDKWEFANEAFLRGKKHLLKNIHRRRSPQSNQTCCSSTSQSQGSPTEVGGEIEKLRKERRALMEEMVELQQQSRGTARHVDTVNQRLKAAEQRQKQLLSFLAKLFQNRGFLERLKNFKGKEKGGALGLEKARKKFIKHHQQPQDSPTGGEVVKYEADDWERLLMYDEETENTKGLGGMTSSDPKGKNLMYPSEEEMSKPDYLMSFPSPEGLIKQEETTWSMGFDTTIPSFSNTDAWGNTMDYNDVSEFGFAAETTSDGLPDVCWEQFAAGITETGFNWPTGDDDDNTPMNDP

Results are given in words; binding and its absence hold for the method and conditions named. Binding can be weak; no strength is given.

For the assay, the target named is BD-S-HsfA2 (Arabidopsis (A. thaliana)) (UniProt J7G1E7). The assay can be described thus: two-hybrid; bait BD-S-HsfA2 (pGBKT7) cotransformed with AD-HSF prey plasmids (pGAD424) into the Y2H Gold yeast strain; spot assay.

Consider AD-HsfA1e (from UniProt Q9SCW5 1-468), for which the binding entry is reported as “binds”.

In the case of AD-HsfA7a (from UniProt Q9SV12 1-272), the binding entry was “binds”.

In the case of AD-HsfB2b (from UniProt Q9T0D3 1-377), the binding result was “binds”.

For AD-HsfA3 (from UniProt Q8GYY1 1-412), the binding result was “binds”.
